# According to paper PMC5347783:
# Chains of the proteins cited; added tags and fusions are not shown.
# UniProt Q9Y5Q3: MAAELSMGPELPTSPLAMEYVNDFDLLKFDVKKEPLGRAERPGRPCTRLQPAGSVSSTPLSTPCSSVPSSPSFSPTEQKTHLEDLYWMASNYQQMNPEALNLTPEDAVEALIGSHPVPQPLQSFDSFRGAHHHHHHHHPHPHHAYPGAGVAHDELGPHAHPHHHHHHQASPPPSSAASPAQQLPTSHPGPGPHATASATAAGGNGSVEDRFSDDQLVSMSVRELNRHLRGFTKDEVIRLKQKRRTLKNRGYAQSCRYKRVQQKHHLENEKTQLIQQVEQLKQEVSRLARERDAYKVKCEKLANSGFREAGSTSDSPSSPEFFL
# UniProt P63279: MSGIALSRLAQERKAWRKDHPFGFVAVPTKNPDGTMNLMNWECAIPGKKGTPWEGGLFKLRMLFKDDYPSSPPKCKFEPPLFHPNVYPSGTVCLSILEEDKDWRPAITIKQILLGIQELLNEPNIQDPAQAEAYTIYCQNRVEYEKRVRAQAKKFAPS
# No constants are given. Whether binding was seen depends on the method and setting. Binding seen in cells or lysates may run through a third protein. Some binding calls cover weakened binding; strength is not graded here.
# Biological target: Flag-tagged MAFB (v-maf avian musculoaponeurotic fibrosarcoma oncogene homolog B) (human) (UniProt Q9Y5Q3)
# Test: co-IP; Flag-MAFB and HA-UBC9 co-transfected into HEK293T cells; lysates immunoprecipitated with Flag gel or HA gel; western blot with antibodies against Flag and HA
substance,measurement,value
HA-UBC9 (SUMO E2 conjugating enzyme UBC9) (from UniProt P63279 1-158),binding,binds
